According to doi:10.1101/2025.02.11.637656:
These are yes or no findings as the source states them, for the method shown. Binding seen in cells or lysates may run through a third protein. A result given as binding can be weak or reduced; the word gives no strength.

Key:
Assay in all cases: pull-down
[1] = biological target: GST-tagged Xvelo F1 (1-160 aa) (Xenopus)
[2] = biological target: GST-tagged Xvelo F3 (386-610 aa) (Xenopus)
[3] = biological target: GST-tagged Xvelo F4 (586-779 aa) (Xenopus)

Measured: binding

B1: Spindle assembly defective protein 6 (Sas6) (protein, UniProt Q6UVJ0 1-657)
chain: MSQVLFHQLVPLQVKCKDCEERRVSIRMSIELQSVSNPVHRKDLVIRLTDDTDPFFLYNLVISEEDFQSLKFQQGLLVDFLAFPQKFIDLLQQCTQEHAKEIPRFLLQLVSPAAILDNSPAFLNVVETNPFKHLTHLSLKLLPGNDVEIKKFLAGCLKCSKEEKLSLMQSLDDATKQLDFTRKTLAEKKQELDKLRNEWASHTAALTNKHSQELTNEKEKALQAQVQYQQQHEQQKKDLEILHQQNIHQLQNRLSELEAANKDLTERKYKGDSTIRELKAKLSGVEEELQRTKQEVLSLRRENSTLDVECHEKEKHVNQLQTKVAVLEQEIKDKDQLVLRTKEAFDTIQEQKVVLEENGEKNQVQLGKLEATIKSLSAELLKANEIIKKLQGDLKTLMGKLKLKNTVTIQQEKLLAEKEEKLQKEQKELQDVGQSLRIKEQEVCKLQEQLEATVKKLEESKQLLKNNEKLITWLNKELNENQLVRKQDVLGPSTTPPAHSSSNTIRSGISPNLNVVDGRLTYPTCGIGYPVSSAFAFQNTFPHSISAKNTSHPGSGTKVQFNLQFTKPNASLGDVQSGATISMPCSTDKENGENVGLESKYLKKREDSIPLRGLSQNLFSNSDHQRDGTLGALHTSSKPTALPSASSAYFPGQLPNS
binds: [1] | [2] | [3]
